Strings that start with PEPTIDE1 are HELM notation: dots part the residues, brackets hold end groups and non-standard residues.

The data set can be described thus: peptide synthesis. The note with it: late stage modification step.

Consider “PEPTIDE1{[FBz-AEE-Gly].F.G.[CysCAM].F.[dW].K.T.L.[GABA].[B21C7-EtNH]}$$$$V2.0”, for which the step yield is on record as 66%.

For the origin of these results see patent US20200190135A1 (ChromaCon AG, priority 2016, published 2020).
